Laboratory results: PubChem BioAssay AID1259308 (NCATS, 2017)
This is a random part of about 59,000 deposited reagents. About 1,510 of them (2.6%) were called active. 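Calls use total luciferase alone and ignore viability, so some active siRNAs may act by altering cell number.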 The numbers tell different reagents against one gene apart. Not all columns of the deposit are shown.

Test: 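Genes whose loss raises luciferase production in HEK293 cells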 (primary screen)
Cells: human HEK293 embryonic kidney cells stably expressing firefly luciferase (HEK-CMV-Luc2-Hygro)
Reagent: single siRNA against human genes, 0.8 pmol siRNA per well
Duration: 72 h
Read-out: 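Reporter luminescence and viable-cell signal on separate replicate plates, given as percent of non-targeting control and median/MAD z-scores, plus per-cell luciferase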
Reading the numbers: total luciferase, z-score and total luciferase, % of control: higher = more reporter protein produced
Hit rule: 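An siRNA counts as active if its total luciferase robust z-score exceeds 3; genes with two or more such siRNAs out of three were retested with fresh siRNAs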
Meaning of the calls: active = raised luciferase; inactive = no rise

Depletion of KIF19BP (kinesin family member 19B, pseudogene) #1 came out at: total luciferase, z-score 3.41; total luciferase, % of control 150; active. With knock-down of KIF19BP (kinesin family member 19B, pseudogene) #2, the screen gave total luciferase, z-score -0.159; total luciferase, % of control 78.7; inactive. With knock-down of KIF19BP (kinesin family member 19B, pseudogene) #3 the results were total luciferase, z-score 1.35; total luciferase, % of control 109; inactive. Against DYNC2LI1 (dynein cytoplasmic 2 light intermediate chain 1) #1, the values are total luciferase, z-score 1.34; total luciferase, % of control 109; inactive. After knock-down of DYNC2LI1 (dynein cytoplasmic 2 light intermediate chain 1) #2 the results were total luciferase, z-score 1.48; total luciferase, % of control 111; inactive. Silencing of DYNC2LI1 (dynein cytoplasmic 2 light intermediate chain 1) #3 came out at: total luciferase, z-score 0.0343; total luciferase, % of control 82.6; inactive.

Active calls (from the list above):
KIF19BP (kinesin family member 19B, pseudogene) #1 | total luciferase, z-score = 3.41; total luciferase, % of control = 150; outcome = active

More entries follow:
Silencing of TRDN (triadin) #1 came out at: total luciferase, z-score 0.319; total luciferase, % of control 88.2; inactive. Knock-down of TRDN (triadin) #2 gave: total luciferase, z-score -0.698; total luciferase, % of control 68; inactive. For TRDN (triadin) #3, the entry reads total luciferase, z-score 0.887; total luciferase, % of control 99.5; inactive. Against GCOM1 (GCOM1, MYZAP-POLR2M combined locus) #1 the deposit lists total luciferase, z-score 0.17; total luciferase, % of control 85.3; inactive. For GCOM1 (GCOM1, MYZAP-POLR2M combined locus) #2, the entry reads total luciferase, z-score 0.187; total luciferase, % of control 85.6; inactive. Against GCOM1 (GCOM1, MYZAP-POLR2M combined locus) #3, the values are total luciferase, z-score 0.292; total luciferase, % of control 87.7; inactive.
